Source: the supplement of paper PMC8728848
The list shows a part of the results.

Tests used:
Test in all cases: glycan array binding signal (z-score within array); higher = stronger binding
Conditions in all cases: glycan notation: IUPAC condensed, linker removed
[1] = target: Neu5Ac(a2-6)GlcNAc(b1-4)GlcNAc
Method in brief: (§1)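 The Consortium for Functional Glycomics database supplied 3228 glycan arrays, of which those lacking an available protein sequence were dropped. The binding signal, a within-array Z-score, was averaged across arrays of the same protein sequence and across linkers. Negative scores can be read as non-binding.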

[2] = target: Neu5Ac(a2-6)GlcNAc(b1-4)GlcNAc(b1-4)GlcNAc
Method in brief: as §1

[3] = target: Neu5Ac(a2-8)Neu5Ac
Method in brief: as §1

[4] = target: Neu5Ac(a2-8)Neu5Ac(a2-3)Gal(b1-3)GalNAc(b1-4)[Neu5Ac(a2-3)]Gal(b1-4)Glc
Method in brief: as §1

[5] = target: Neu5Ac(a2-8)Neu5Ac(a2-3)Gal(b1-3)GalNAc(b1-4)[Neu5Ac(a2-8)Neu5Ac(a2-3)]Gal(b1-4)Glc
Method in brief: as §1

[6] = target: Neu5Ac(a2-8)Neu5Ac(a2-3)Gal(b1-4)Glc
Method in brief: as §1

[7] = target: Neu5Ac(a2-8)Neu5Ac(a2-3)Gal(b1-4)GlcNAc
Method in brief: as §1

[8] = target: Neu5Ac(a2-8)Neu5Ac(a2-3)[Gal(b1-3)GalNAc(b1-4)]Gal(b1-4)Glc
Method in brief: as §1

[9] = target: Neu5Ac(a2-8)Neu5Ac(a2-3)[GalNAc(b1-4)]Gal(b1-4)Glc
Method in brief: as §1

[10] = target: Neu5Ac(a2-8)Neu5Ac(a2-8)Neu5Ac
Method in brief: as §1

[11] = target: Neu5Ac(a2-8)Neu5Ac(a2-8)Neu5Ac(a2-3)Gal(b1-4)Glc
Method in brief: as §1

[12] = target: Neu5Ac(a2-8)Neu5Ac(a2-8)Neu5Ac(a2-3)[Gal(b1-3)GalNAc(b1-4)]Gal(b1-4)Glc
Method in brief: as §1

[13] = target: Neu5Ac(a2-8)Neu5Ac(a2-8)Neu5Ac(a2-3)[GalNAc(b1-4)]Gal(b1-4)Glc
Method in brief: as §1

[14] = target: Neu5Ac(a2-8)Neu5Ac(a2-8)Neu5Ac(a2-8)Neu5Ac(a2-3)[GalNAc(b1-4)]Gal(b1-4)Glc
Method in brief: as §1

[15] = target: Neu5Ac(a2-8)Neu5Gc(a2-3)Gal(b1-4)GlcNAc
Method in brief: as §1

[16] = target: Neu5Ac(b2-6)Gal(b1-4)GlcNAc
Method in brief: as §1

[17] = target: Neu5Ac(b2-6)GalNAc
Method in brief: as §1

[18] = target: Neu5Ac9Ac(a2-3)Gal(b1-3)GlcNAc
Method in brief: as §1

[19] = target: Neu5Ac9Ac(a2-3)Gal(b1-4)GlcNAc
Method in brief: as §1

[20] = target: Neu5Ac9Ac(a2-6)Gal(b1-4)GlcNAc
Method in brief: as §1

[21] = target: Neu5Gc(a2-3)Gal(b1-3)GlcNAc
Method in brief: as §1

[22] = target: Neu5Gc(a2-3)Gal(b1-3)[Fuc(a1-4)]GlcNAc
Method in brief: as §1

[23] = target: Neu5Gc(a2-3)Gal(b1-4)Glc
Method in brief: as §1

[24] = target: Neu5Gc(a2-3)Gal(b1-4)GlcNAc
Method in brief: as §1

[25] = target: Neu5Gc(a2-3)Gal(b1-4)GlcNAc(b1-3)Gal(b1-4)GlcNAc(b1-2)Man(a1-3)[Neu5Gc(a2-3)Gal(b1-4)GlcNAc(b1-3)Gal(b1-4)GlcNAc(b1-2)Man(a1-6)]Man(b1-4)GlcNAc(b1-4)GlcNAc
Method in brief: as §1

[26] = target: Neu5Gc(a2-3)Gal(b1-4)[Fuc(a1-3)]GlcNAc
Method in brief: as §1

[27] = target: Neu5Gc(a2-6)Gal(b1-4)GlcNAc
Method in brief: as §1

[28] = target: Neu5Gc(a2-6)GalNAc
Method in brief: as §1

[29] = target: Neu5Gc(a2-8)Neu5Ac(a2-3)Gal(b1-4)GlcNAc
Method in brief: as §1

[30] = target: Neu5Gc(a2-8)Neu5Gc(a2-3)Gal(b1-4)GlcNAc
Method in brief: as §1

B1: SHCBP1-GST (Homo sapiens), Q8NEM2 (protein)
chain: MADGSLTGGGLEAAAMAPERMGWAVEQELASLEKGLFQDEDSCSDCSYRDKPGSSLQSFMPEGKTFFPEIFQTNQLLFYERFRAYQDYILADCKASEVQEFTAEFLEKVLEPSGWRAVWHTNVFKVLVEITDVDFAALKAVVRLAEPYLCDSQVSTFTMECMKELLDLKEHRLPLQELWVVFDDSGVFDQTALAIEHVRFFYQNIWRSWDEEEEDEYDYFVRCVEPRLRLHYDILEDRVPSGLIVDYHNLLSQCEESYRKFLNLRSSLSNCNSDSEQENISMVEGLKLYSEMEQLKQKLKLIENPLLRYVFGYQKNSNIQAKGVRSSGQKITHVVSSTMMAGLLRSLLTDRLCQEPGEEEREIQFHSDPLSAINACFEGDTVIVCPGHYVVHGTFSIADSIELEGYGLPDDIVIEKRGKGDTFVDCTGADIKISGIKFVQHDAVEGILIVHRGKTTLENCVLQCETTGVTVRTSAEFLMKNSDLYGAKGAGIEIYPGSQCTLSDNGIHHCKEGILIKDFLDEHYDIPKISMVNNIIHNNEGYGVVLVKPTIFSDLQENAEDGTEENKALKIQTSGEPDVAERVDLEELIECATGKMELCARTDPSEQVEGNCEIVNELIAASTQKGQIKKKRLSELGITQADDNLMSQEMFVGIVGNQFKWNGKGSFGTFLF
With B1 the “glycan array binding signal (z-score)” value [1] was -0.776, the “glycan array binding signal (z-score)” value [2] was 0.48 and the “glycan array binding signal (z-score)” value [3] was 0.075. The “glycan array binding signal (z-score)” value [4] was -0.239, the “glycan array binding signal (z-score)” value [5] was -0.396 and the “glycan array binding signal (z-score)” value [6] was 0.359. The “glycan array binding signal (z-score)” value [7] was -0.54, the “glycan array binding signal (z-score)” value [8] was -0.848 and the “glycan array binding signal (z-score)” value [9] was -0.847. For the same binder, the “glycan array binding signal (z-score)” value [10] was -0.151, the “glycan array binding signal (z-score)” value [11] was -0.473 and the “glycan array binding signal (z-score)” value [12] was -0.149. The “glycan array binding signal (z-score)” value [13] was 0.386, the “glycan array binding signal (z-score)” value [14] was 0.231 and the “glycan array binding signal (z-score)” value [15] was -0.244. The “glycan array binding signal (z-score)” value [16] was -0.65, the “glycan array binding signal (z-score)” value [17] was -0.581 and the “glycan array binding signal (z-score)” value [18] was -0.964. The “glycan array binding signal (z-score)” value [19] was -0.56, the “glycan array binding signal (z-score)” value [20] was -0.135 and the “glycan array binding signal (z-score)” value [21] was -0.042. The “glycan array binding signal (z-score)” value [22] was 0.247, the “glycan array binding signal (z-score)” value [23] was -0.781 and the “glycan array binding signal (z-score)” value [24] was -0.692. The “glycan array binding signal (z-score)” value [25] was 0.71, the “glycan array binding signal (z-score)” value [26] was 0.014 and the “glycan array binding signal (z-score)” value [27] was -0.426. For the same binder, the “glycan array binding signal (z-score)” value [28] was 0.53, the “glycan array binding signal (z-score)” value [29] was -0.164 and the “glycan array binding signal (z-score)” value [30] was -0.869.
